For 55 molecules, AC50 results are on record in PubChem BioAssay AID1487 (National Center for Advancing Translational Sciences (NCATS), 2009).

The other results are listed elsewhere or left out. Further columns of the screen follow, without active or inactive calls. Most of these compounds were active or inconclusive in the main read-out, so they are no random draw. The note in brackets gives the kind of curve behind each potency; many fits are weak.

The nature of the experiment: qHTS Assay for Modulators of Lamin A Splicing. Particulars: HeLa LMNA splicing GFP/RFP minigene ratio, 48 h. An outline of the steps:
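S3 HeLa stable clones carrying a lamin A-EGFP splicing minigene plus DsRed2 were seeded at 600 cells/well in Opti-MEM with 2% FBS, pin-dosed and incubated 48 h at 37°C. Acumen cytometry (488 nm) gave the GFP/RFP total-intensity ratio.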
Background: In qHTS, concentration-response curves come from the screen itself.

[1] abbreviates: measured here: RFP viability control channel.
Setting [2] is: measured here: GFP splicing reporter channel.

Consider `CCOc1ccc(C2C=C(c3ccccc3)Nc3nnnn32)cc1` (stereo unspecified), for which the concentration at half-maximal activity (AC50) under setting [1] was 22.4 µM [rising, single point]. The same measure, in the same setting: the figure for `Cc1ccc(CC(=O)Nc2ncc([N+](=O)[O-])s2)cc1` is 35.5 µM [rising, single point]; for `Cc1noc(C)c1CSCC(=O)N1CCN(c2ccc(F)cc2)CC1` it is 12.6 µM [rising, partial curve]. As for `CC1CC(OC(=O)c2ccccc2O)CC(C)(C)C1` (stereo unspecified), the AC50 reads like this: under setting [2], 35.5 µM [falling, single point]; under setting [1], 35.5 µM [falling, single point]. Regarding `O=C(COc1ccc(C(=O)c2ccccc2)cc1)NC1CCCCC1`, the AC50 by setting is: under setting [2], 3.16 µM [rising, full curve, poor fit]; under setting [1], 11.2 µM [rising, partial curve]. As to `O=C(Nc1ccc(Oc2ccc(NC(=O)Nc3ccccc3Cl)cc2)cc1)Nc1ccccc1Cl`, the AC50 under setting [2] was 35.5 µM [falling, single point] and the AC50 under setting [1] was 12.6 µM [falling, partial curve]. As for `CCOC(=O)c1cnc2c(Cl)c(Cl)ccc2c1N1CCN(C)CC1`, the AC50 was 22.4 µM [rising, single point] under setting [2] and 35.5 µM [rising, single point] under setting [1]. As to `COC(=O)c1cc(CNC(=O)c2cccc(Cl)c2Cl)ccc1OC`, the AC50 is, setting by setting: under setting [2], 20 µM [rising, partial curve, poor fit]; under setting [1], 22.4 µM [rising, single point]. Regarding `COc1ccc(CN2CCN(CC(O)Cn3c4ccccc4c4ccccc43)CC2)cc1` (stereo unspecified), the concentration at half-maximal activity (AC50) is, setting by setting: under setting [2], 35.5 µM [falling, single point]; under setting [1], 35.5 µM [falling, single point]. Regarding `COCCNC(=O)CSc1c(C)cnc2c1c(=O)n(C)c(=O)n2C`, the AC50 under setting [1] is 0.501 µM [rising, full curve, poor fit]. As for `CC1CCc2c(sc3ncnc(NCc4cccnc4)c23)C1` (stereo unspecified), the AC50 under setting [2] was 0.316 µM [falling, full curve, poor fit]. The same measure, in the same setting: for `C[C@@H](CN1CCC(Cc2ccccc2)CC1)[C@@H](O)c1ccc(O)cc1` the value was 0.141 µM [rising, full curve, poor fit]; for `Cc1ccc(-n2c(NN)nc3ccccc3c2=O)c(C)c1`, 35.5 µM [rising, single point]; for `CCN(c1ccccc1)S(=O)(=O)c1cccc(C(=O)NCC(c2cccs2)N(C)C)c1` (stereo unspecified), 0.0355 µM [falling, full curve, poor fit]. On the same count and under the same terms, the figure for `CN(C)C(N)=NCCC[C@H](N)C(=O)O` is 0.141 µM [falling, full curve]. On to `O=[N+]([O-])c1ccc2cn(-c3ccccc3)nc2c1`, for which the AC50 is 20 µM [rising, single point] under setting [2] and 11.2 µM [rising, partial curve] under setting [1]. Turning to `CN(C)S(=O)(=O)c1ccc(NC(=O)C2COc3ccccc3O2)cc1` (stereo unspecified), the AC50 under setting [1] was 12.6 µM [rising, single point]. Still for that read-out and setting: for `Cc1ccc(-n2nnc3c(=O)n(CC(=O)NCc4ccco4)cnc32)cc1` the value was 25.1 µM [rising, single point]; for `CCc1ccc(NC(=S)NC2CCN(Cc3ccccc3)CC2)cc1`, 14.1 µM [rising, partial curve, poor fit]. For `O=C1C2C(C(=O)N1/N=C/c1ccc([N+](=O)[O-])o1)C1C=CC2C12CC2` (stereo unspecified), the AC50 is, setting by setting: under setting [2], 35.5 µM [rising, single point]; under setting [1], 35.5 µM [rising, single point]. As to `Cc1ccc(NC2=C(NCCO)C(=O)c3ccccc3C2=O)cc1`, the AC50 under setting [1] is 20 µM [rising, single point]. Still for that read-out and setting: for `COc1cccc2cc(C(=O)N3CCN(c4ccc(C)cc4C)CC3)c(=O)oc12` the value was 22.4 µM [rising, single point]; for `COc1ccccc1-c1cc2nc(C)c(CCC(=O)NCc3ccco3)c(C)n2n1`, 31.6 µM [rising, partial curve, poor fit]; for `NC(=O)c1cc(Cc2ccccc2)sc1NC(=O)c1ccco1`, 35.5 µM [rising, single point]. The same measure, in the same setting: the figure for `COc1ccc(-c2nc(/C=C3\C(C)=Nc4ccccc43)c(O)o2)cc1` is 31.6 µM [rising, single point]. `COc1cccc(C(=O)NC(=S)Nc2ccc(N(C)C)cc2)c1`: the AC50 was 20 µM [rising, single point] under setting [2] and 14.1 µM [rising, single point] under setting [1]. Consider `COc1ccc(-c2[nH]ncc2CN(C)CC2CCCCO2)cc1F` (stereo unspecified), for which the concentration at half-maximal activity (AC50) is, setting by setting: under setting [2], 0.158 µM [falling, full curve, poor fit]; under setting [1], 0.178 µM [falling, full curve]. Regarding `COc1ccc(C(=O)NN/C(C)=C/C(=O)C(F)(F)C(F)(F)C(F)(F)F)cc1`, the AC50 under setting [1] was 11.2 µM [rising, partial curve].

Consider `CSC(=S)N/N=C(\C)c1ccccc1`, for which the AC50 under setting [1] was 7.08 µM [rising, partial curve]. `COc1ccc(NS(=O)(=O)c2ccc(N3CCCC3)c(NC(=S)Nc3ccc(SC(F)F)cc3)c2)cc1`: the AC50 under setting [1] was 10 µM [rising, partial curve]. Consider `COc1ccc(CCNC(=O)c2ccc3c(c2)nc(C)n3-c2ccc(Br)cc2)cc1OC`, for which the concentration at half-maximal activity (AC50) under setting [2] is 0.01 µM [falling, full curve]. Consider `CC(C)Oc1ccc(/C=N/NC(N)=S)cc1`, for which the AC50 is 28.2 µM [falling, single point] under setting [2] and 6.31 µM [rising, single point] under setting [1]. Consider `COc1ccc(-c2csc(N(CC3CCCO3)C(=O)c3ccco3)n2)cc1` (stereo unspecified), for which, under setting [1], the AC50 is 12.6 µM [rising, partial curve]. With `Cc1ccc2nc(-c3ccccc3Cl)cc(C(=O)Nc3cc(C)on3)c2c1`, under setting [2], the AC50 is 11.2 µM [rising, single point]. Regarding `COc1ccc(CC(=O)OCc2cc(=O)n3cc(Br)ccc3n2)cc1OC`, the AC50 under setting [1] is 17.8 µM [rising, partial curve, poor fit]. Take `Cn1cc(/C=C/C(=O)N2CCCC(C(=O)c3ccc(C(C)(C)C)cc3)C2)cn1` (stereo unspecified): the half-maximal activity concentration (AC50) was 4.47 µM [falling, full curve, poor fit] under setting [2] and 5.01 µM [falling, full curve, poor fit] under setting [1]. As to `COc1cccc(/C=C(/C#N)c2ccc(F)cc2)c1OCc1cccc(C(=O)O)c1`, the AC50 under setting [2] is 20 µM [rising, single point]. Regarding `COc1ccc(Br)c(/C=N/NC(=O)COc2ccc(-c3ccccc3)cc2)c1`, the AC50 is 6.31 µM [rising, partial curve] under setting [2] and 8.91 µM [rising, partial curve, poor fit] under setting [1]. For the molecule `CCn1c(=N)c(C(=O)OC)cc2c(=O)n3ccccc3nc21`, the AC50 under setting [1] is 0.141 µM [falling, full curve, poor fit]. For `COc1ccc(CSc2cccc3cccnc23)cc1[N+](=O)[O-]`, the half-maximal activity concentration (AC50) was 20 µM [rising, partial curve, poor fit] under setting [2] and 25.1 µM [rising, single point] under setting [1]. `O=C(c1ccccc1)c1ccc2nc(N3CCCCC3)c3nncn3c2c1`: the AC50 under setting [1] was 35.5 µM [rising, single point]. For the molecule `COc1ccccc1CNCC(O)(c1ccc(Cl)cc1)c1ccc(Cl)cc1`, the AC50 was 11.2 µM [falling, partial curve] under setting [2] and 12.6 µM [falling, partial curve] under setting [1]. For `CCOC(=O)c1ccc(NC(=O)CSc2nnc(CCc3ccc(C)o3)n2-c2ccccc2)cc1`, the AC50 under setting [2] is 5.62 µM [falling, single point] and the half-maximal activity concentration (AC50) under setting [1] was 5.62 µM [falling, single point]. `COc1ccc(-n2c(SCC(=O)NCC3CCCO3)nc3n[nH]c(C)c3c2=N)cc1` (stereo unspecified): under setting [1], the AC50 is 35.5 µM [rising, single point]. Regarding `Cc1ccccc1Cn1c(CN2CCc3ccccc3C2)nc2c1c(=O)n(C)c(=O)n2C`, the AC50 under setting [1] was 35.5 µM [rising, single point]. The same measure, in the same setting: the figure for `N[C@H](Cc1c[nH]c2ccccc12)C(=O)O` is 0.0891 µM [rising, full curve]. Consider `Cn1cc(/C=C2/SC(=O)N(CC(=O)Nc3ccc4c(c3)OCO4)C2=O)c2ccccc21`, for which the AC50 is 10 µM [falling, partial curve] under setting [2] and 11.2 µM [falling, partial curve] under setting [1]. Consider `COc1ccc(C(C(=O)NC2CCCC2)N(Cc2ccccc2)C(=O)c2nsc(Cl)c2Cl)cc1` (stereo unspecified), for which the AC50 under setting [1] was 35.5 µM [rising, single point]. On to `CCC1=NN2C(=N)/C(=C\c3cccn3-c3cccc(Cl)c3)C(=O)N=C2S1`, for which, under setting [2], the half-maximal activity concentration (AC50) is 5.62 µM [rising, single point]. On to `Cc1ccc(CNC(=O)/C=C/c2ccc(S(=O)(=O)NCc3ccco3)cc2)cc1`, for which the AC50 was 31.6 µM [rising, single point] under setting [2] and 35.5 µM [rising, single point] under setting [1]. `O=[N+]([O-])c1nn(-c2ccc(Cl)cc2)n(O)c1=NCc1cccnc1`: the AC50 under setting [2] was 35.5 µM [falling, partial curve, poor fit] and the half-maximal activity concentration (AC50) under setting [1] is 35.5 µM [falling, partial curve, poor fit]. Regarding `COCCNC(=O)Cn1c(-c2cccs2)cc2cc(Cl)ccc21`, the AC50 reads like this: under setting [2], 0.0178 µM [falling, full curve]; under setting [1], 0.0178 µM [falling, full curve, poor fit]. In the case of `CCN1/C(=C\c2ccc3ccccc3[n+]2CC)Sc2cc(C)ccc21`, the concentration at half-maximal activity (AC50) under setting [2] is 3.16 µM [rising, full curve].

For `COc1ccc(CN2CCNC(=O)C2CC(=O)N(C)Cc2ccon2)cc1OC` (stereo unspecified), the AC50 under setting [1] was 0.1 µM [falling, full curve, poor fit]. As to `COc1cc(C(=O)NCCc2sc(-c3ccc(C)cc3)nc2C)cc(OC)c1OC`, the AC50 is, setting by setting: under setting [2], 11.2 µM [falling, partial curve, poor fit]; under setting [1], 11.2 µM [falling, partial curve, poor fit].

One may read the AC50 as the concentration giving half of the maximal activity seen.
